{"sequences": {"note": "Chains of the proteins cited; added tags and fusions are not shown. Residues count along the entry.", "UniProt Q9Z0U4, residues 20-960": "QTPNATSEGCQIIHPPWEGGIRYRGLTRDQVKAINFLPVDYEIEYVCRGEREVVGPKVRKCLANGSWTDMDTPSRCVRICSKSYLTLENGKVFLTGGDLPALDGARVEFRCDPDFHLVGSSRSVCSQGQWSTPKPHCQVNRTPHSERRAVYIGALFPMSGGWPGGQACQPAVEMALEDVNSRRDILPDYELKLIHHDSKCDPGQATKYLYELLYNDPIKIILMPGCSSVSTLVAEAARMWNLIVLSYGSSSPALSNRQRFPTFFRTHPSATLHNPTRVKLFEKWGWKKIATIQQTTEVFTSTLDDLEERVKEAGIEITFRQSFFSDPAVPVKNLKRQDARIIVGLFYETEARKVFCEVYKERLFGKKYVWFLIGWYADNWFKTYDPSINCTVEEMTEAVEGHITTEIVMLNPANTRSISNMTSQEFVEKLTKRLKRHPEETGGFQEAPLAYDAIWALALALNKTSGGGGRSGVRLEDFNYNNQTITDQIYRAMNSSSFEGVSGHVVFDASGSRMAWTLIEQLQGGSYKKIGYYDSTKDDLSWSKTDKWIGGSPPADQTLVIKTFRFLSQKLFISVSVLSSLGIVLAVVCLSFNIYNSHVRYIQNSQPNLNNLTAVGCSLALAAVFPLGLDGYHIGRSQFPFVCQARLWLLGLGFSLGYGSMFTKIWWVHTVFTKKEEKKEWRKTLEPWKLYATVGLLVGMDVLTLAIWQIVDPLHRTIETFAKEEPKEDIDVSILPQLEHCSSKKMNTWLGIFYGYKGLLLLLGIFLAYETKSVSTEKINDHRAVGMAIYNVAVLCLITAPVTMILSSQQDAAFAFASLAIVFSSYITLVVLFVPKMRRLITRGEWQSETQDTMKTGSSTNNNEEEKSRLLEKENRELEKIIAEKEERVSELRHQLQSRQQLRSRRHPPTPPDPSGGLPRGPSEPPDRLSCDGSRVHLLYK"}, "source": "paper PMC11788220", "binders": {"B1": {"name": "flag-tagged GABABR2 (wild-type) (receptor, UniProt O88871 41-940)", "chain": "WTRGAPRPPPSSPPLSIMGLMPLTKEVAKGSIGRGVLPAVELAIEQIRNESLLRPYFLDLRLYDTECDNAKGLKAFYDAIKYGPNHLMVFGGVCPSVTSIIAESLQGWNLVQLSFAATTPVLADKKKYPYFFRTVPSDNAVNPAILKLLKHFRWRRVGTLTQDVQRFSEVRNDLTGVLYGEDIEISDTESFSNDPCTSVKKLKGNDVRIILGQFDQNMAAKVFCCAFEESMFGSKYQWIIPGWYEPAWWEQVHVEANSSRCLRRSLLAAMEGYIGVDFEPLSSKQIKTISGKTPQQFEREYNSKRSGVGPSKFHGYAYDGIWVIAKTLQRAMETLHASSRHQRIQDFNYTDHTLGKIILNAMNETNFFGVTGQVVFRNGERMGTIKFTQFQDSREVKVGEYNAVADTLEIINDTIRFQGSEPPKDKTIILEQLRKISLPLYSILSALTILGMIMASAFLFFNIKNRNQKLIKMSSPYMNNLIILGGMLSYASIFLFGLDGSFVSEKTFETLCTVRTWILTVGYTTAFGAMFAKTWRVHAIFKNVKMKKKIIKDQKLLVIVGGMLLIDLCILICWQAVDPLRRTVERYSMEPDPAGRDISIRPLLEHCENTHMTIWLGIVYAYKGLLMLFGCFLAWETRNVSIPALNDSKYIGMSVYNVGIMCIIGAAVSFLTRDQPNVQFCIVALVIIFCSTITLCLVFVPKLITLRTNPDAATQNRRFQFTQNQKKEDSKTSTSVTSVNQASTSRLEGLQSENHRLRMKITELDKDLEEVTMQLQDTPEKTTYIKQNHYQELNDILSLGNFTESTDGGKAILKNHLDQNPQLQWNTTEPSRTCKDPIEDINSPEHIQRRLSLQLPILHHAYLPSIGGVDASCVSPCVSPTASPRHRHVPPSFRVMVSGL"}}, "biological_target": "myc-tagged GABABR1a (rat) (UniProt Q9Z0U4)", "experiment": "co-IP; HEK-293 T cells lysed 24 h after transfection with GABABR1^myc and wild-type or mutant GABABR2^flag; lysate incubated overnight at 4°C with Dynabeads protein G conjugated to rabbit anti-myc antibody; washes with decreasing molarity of NaCl; western blot with anti-FLAG, stripped and reprobed with anti-GABABR1; band intensity analysed in ImageJ", "note": "No constants are given. Whether binding was seen depends on the method and setting. In cells and extracts the contact can be indirect. Some results given as binding are weak or reduced against the parent protein; the word gives no strength. Where a sequence is shown, tags or fusion partners need not be part of it.", "data": [{"binder": "B1", "values": [{"measurement": "binding", "result": "binds"}]}]}
